Record: PubChem BioAssay AID1259308 (NCATS, 2017)

- Test: 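Genes whose loss raises luciferase production in HEK293 cells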 (primary screen)
- Cells: human HEK293 embryonic kidney cells stably expressing firefly luciferase (HEK-CMV-Luc2-Hygro)
- Reagent: single siRNA against human genes, 0.8 pmol siRNA per well
- Timing: 72 h
- Detection: 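Luciferase light (ONE-Glo) measured on one replicate plate set and viability (CellTiter-Glo) on the other, scaled to a negative control siRNA, with robust z-scores and luciferase per cell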
- Reading the numbers: total luciferase, z-score: higher = more reporter protein produced
- Call rule: 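An siRNA counts as active if its total luciferase robust z-score exceeds 3; genes with two or more such siRNAs out of three were retested with fresh siRNAs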
- Meaning of the calls: active = raised luciferase; inactive = no rise
Shown is an unselected part of about 59,000 reagents tested. Over the whole deposit, about 1,510 (2.6%) got an active call. 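Calls use total luciferase alone and ignore viability, so some active siRNAs may act by altering cell number.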 The numbers tell different reagents against one gene apart. Further read-outs or replicates are left out here.

total luciferase, z-score, by gene symbol and reagent
OR6C2: #1 -1.82 inactive; #2 2.77 inactive; #3 1.56 inactive
UQCR10: #1 -1.73 inactive; #2 -0.0869 inactive; #3 0.717 inactive
RGS3: #1 -0.494 inactive; #2 -0.644 inactive; #3 0.89 inactive
MAP4K4: #1 -0.0979 inactive; #2 2.48 inactive; #3 0.817 inactive
OR1N2: #1 0.193 inactive; #2 -0.947 inactive; #3 2.42 inactive
ADGRE1: #1 0.711 inactive; #2 -0.0692 inactive; #3 -0.296 inactive

A portion from the list above, as a working copy:
total luciferase, z-score, by gene symbol and reagent
OR6C2: #2 2.77 inactive; #3 1.56 inactive
UQCR10: #1 -1.73 inactive; #2 -0.0869 inactive

Next records:
total luciferase, z-score, by gene symbol and reagent
NKX2-2: #1 -0.994 inactive; #2 0.0163 inactive; #3 1.91 inactive
SEPTIN5: #1 0.0208 inactive; #2 0.339 inactive; #3 -1.44 inactive
HPS4: #1 1.46 inactive; #2 1.09 inactive; #3 -0.178 inactive
SMAGP: #1 0.505 inactive; #2 -1.12 inactive; #3 0.667 inactive
IDH3G: #1 -0.24 inactive; #2 -0.124 inactive; #3 0.273 inactive
METTL5: #1 -1.36 inactive; #2 0.0533 inactive; #3 0.0759 inactive
PLXNB3: #1 4.24 active; #2 0.447 inactive; #3 1.52 inactive
